The target in test [1] is T1, full length hOAS1-p44 isoform fused to the GAL4-BD domain (pGBKT7) (human) (UniProt P00973).
T1 sequence: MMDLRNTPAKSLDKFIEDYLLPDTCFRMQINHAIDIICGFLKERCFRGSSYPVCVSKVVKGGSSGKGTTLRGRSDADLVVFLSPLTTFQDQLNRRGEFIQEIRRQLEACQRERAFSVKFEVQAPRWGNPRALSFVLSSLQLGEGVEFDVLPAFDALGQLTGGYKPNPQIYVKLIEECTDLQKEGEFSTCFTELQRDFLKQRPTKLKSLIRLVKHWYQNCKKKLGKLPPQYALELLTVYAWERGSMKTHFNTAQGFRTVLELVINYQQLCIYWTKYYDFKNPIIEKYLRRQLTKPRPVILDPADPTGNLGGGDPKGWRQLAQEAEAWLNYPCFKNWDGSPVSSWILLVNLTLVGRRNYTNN
Kind of test: two-hybrid; Matchmaker Gold library screen: GAL4-BD bait in Y2HGold mated at 30 °C for 24 h with Y187 holding a universal human cDNA library fused to GAL4-AD; selection on DDO, then TDO/A and QDO/A; inserts of colonies from QDO/A plates sequenced; about 2 x 10^6 clones screened.

For test [2], the target named is T2, 3xFlag-tagged full-length hOAS1 p44 isoform (p3xFlag-CMV-OAS1-p44) (human) (UniProt P00973).
T2 sequence: T1 sequence
The test can be described thus: co-IP; A549 cells transiently transfected with p3xFlag-CMV-OAS1-p44, lysed at 48 h (1% Triton X-100, 0.1% SDS, 150 mM NaCl, 50 mM Tris-HCl); anti-Flag agarose overnight at 4 °C; IgG beads as control; blots with anti-SVIL and anti-Flag.

Results are given in words; binding and its absence hold for the method and conditions named. Binding calls can cover weak binding; strength is not graded here. Tags and fused reporters may be left off the sequences shown. For some assays here: In cells and extracts the contact can be indirect.

Take “Supervillin (SVIL) 178 aa prey peptide (aa 1615-1792), GAL4-AD fusion (human) (domain or fragment)”: in test [1], the binding result is on record as “binds”.

For “endogenous full-length Supervillin (SVIL) (from UniProt O95425-2)”, in test [2], the binding result is reported as “binds”.
